Results: patent US5932772A, “Separation processes” (Union Carbide Chemicals & Plastics Technology Corporation, priority 1998, dated 1999)
For at least one compound, name, drawing or mass did not settle the structure.

Experiment: Ligand partition coefficient between polar solvent and hexane
Assay type: physicochemical

c1ccc(P(CCP(c2ccccc2)c2ccccc2)c2ccccc2)cc1 [DPPE, bis(diphenylphosphino)ethane, reference compound]
Kpartition (acetonitrile/hexane, ambient temperature): 7 | Kpartition (summary table, acetonitrile and hexane): 7.0
